The data set concerns HeLa cells. Kind of data set: Photostability under continuous confocal scanning of stained cells. The data set is classed as cell-based. The conditions noted are these: for fluorescence emission with increasing number of scans: HeLa cells, continuous excitation 488 nm (TPE-MitoR) or 560 nm (MitoTracker Red).

In the case of `CN1C(=CC=Cc2n(Cc3ccc(CCl)cc3)c3cc(Cl)c(Cl)cc3[n+]2Cc2ccc(CCl)cc2)C(C)(C)c2ccccc21.[Cl-]` [MT], the “fluorescence emission with increasing number of scans” value is given as “completely quenched in less than ten scans”. Further, under “HeLa cells stained 50 nM 30 min, after 6 scans, 560 nm, 65 μW”, the signal intensity remaining result was “less than 25%”.

`CC[N+]1=C(/C=C/c2ccc(-c3ccc(C(=C(c4ccccc4)c4ccccc4)c4ccccc4)cc3)cc2)C(C)(C)c2ccccc21` [TPE-MitoR, (E)-1-ethyl-3,3-dimethyl-2-(2-(4′(1,2,2-triphenylvinyl)-[1,1′-biphenyl]-4-yl)vinyl)-3H-indol-1-ium hexafluorophosphate]: the “fluorescence emission with increasing number of scans” value is “kept steady even after forty scans”.

On to `[Br-].[Br-].c1ccc(C(=C(c2ccccc2)c2ccc(C[P+](c3ccccc3)(c3ccccc3)c3ccccc3)cc2)c2ccc(C[P+](c3ccccc3)(c3ccccc3)c3ccccc3)cc2)cc1` [TPE-TPP, Bis(Triphenylphosphonium) Tetraphenylethene], for which the fluorescence signal loss entry (HeLa cells stained 5 μM 1 h, 50 scans, total irradiation ~7 min, 405 nm, 65 μW) is “less than 20%”.

These data come from patent US9315465B2, “Photostable AIE luminogens for specific mitochondrial imaging and its method of manufacturing thereof” (THE HONG KONG UNIVERSITY OF SCIENCE AND TECHNOLOGY, priority 2013, dated 2016).
